Some of the results follow.
Key:
Test in all cases: log2 fold change, soluble protein after heating vs DMSO (PISA); higher = thermal stabilisation; K562 cells, 10 uM, 30 min; active = over 0.2 and 3.5 SD of the protein, either way, in both replicates (recomputed)
[1] = compound: CS(=O)(=O)c1ccc(-c2cnc(N)c(C(=O)Nc3ccccc3)n2)cc1
Method in brief: (§1)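 For each measurement, 10 μM compound was applied for 30 min to K562 cells at 2×10^6 cells/mL. Aliquots were heated for 3 min across 48°C-58°C, pooled, and extracted in PBS with 0.5% NP-40 at 4°C; the supernatant after 21,000xg for 90 min was soluble protein. This was quantified by TMTpro 16plex LC-MS/MS with channel sums equalised, and thermal stability was reported relative to control samples from duplicates, on a log2 fold-change scale.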

By UniProt entry, the sequences of proteins in these tests, tags left out. Where a name states a change or a piece, a line headed by the entry shows the natural chain unless it says otherwise.
UniProt Q9NY12: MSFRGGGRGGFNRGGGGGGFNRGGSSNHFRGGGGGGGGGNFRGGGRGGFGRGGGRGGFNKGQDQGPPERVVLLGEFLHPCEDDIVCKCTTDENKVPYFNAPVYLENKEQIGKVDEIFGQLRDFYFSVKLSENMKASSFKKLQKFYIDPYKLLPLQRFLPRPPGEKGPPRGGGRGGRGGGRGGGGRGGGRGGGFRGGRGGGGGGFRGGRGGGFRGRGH
UniProt Q96NB1: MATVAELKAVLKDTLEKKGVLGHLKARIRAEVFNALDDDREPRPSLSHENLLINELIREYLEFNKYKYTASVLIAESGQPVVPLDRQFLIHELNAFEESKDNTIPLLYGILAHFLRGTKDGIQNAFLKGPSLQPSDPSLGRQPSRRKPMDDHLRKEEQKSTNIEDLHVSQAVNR
UniProt O75879: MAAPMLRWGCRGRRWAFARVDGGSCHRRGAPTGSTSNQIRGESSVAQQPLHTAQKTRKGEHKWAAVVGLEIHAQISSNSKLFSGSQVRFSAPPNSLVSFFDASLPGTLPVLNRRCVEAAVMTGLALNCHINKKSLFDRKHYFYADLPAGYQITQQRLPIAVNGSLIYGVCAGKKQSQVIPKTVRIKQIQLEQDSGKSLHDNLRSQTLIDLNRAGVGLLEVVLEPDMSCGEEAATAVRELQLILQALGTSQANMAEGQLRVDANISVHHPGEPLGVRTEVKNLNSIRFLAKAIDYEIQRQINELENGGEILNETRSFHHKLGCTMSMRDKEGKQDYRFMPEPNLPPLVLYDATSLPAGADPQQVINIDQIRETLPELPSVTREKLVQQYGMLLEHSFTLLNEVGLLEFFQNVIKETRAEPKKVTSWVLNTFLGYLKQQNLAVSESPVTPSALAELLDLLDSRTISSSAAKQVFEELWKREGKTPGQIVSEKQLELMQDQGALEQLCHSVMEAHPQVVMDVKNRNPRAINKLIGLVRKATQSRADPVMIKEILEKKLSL
UniProt P19526, whole entry, looked up: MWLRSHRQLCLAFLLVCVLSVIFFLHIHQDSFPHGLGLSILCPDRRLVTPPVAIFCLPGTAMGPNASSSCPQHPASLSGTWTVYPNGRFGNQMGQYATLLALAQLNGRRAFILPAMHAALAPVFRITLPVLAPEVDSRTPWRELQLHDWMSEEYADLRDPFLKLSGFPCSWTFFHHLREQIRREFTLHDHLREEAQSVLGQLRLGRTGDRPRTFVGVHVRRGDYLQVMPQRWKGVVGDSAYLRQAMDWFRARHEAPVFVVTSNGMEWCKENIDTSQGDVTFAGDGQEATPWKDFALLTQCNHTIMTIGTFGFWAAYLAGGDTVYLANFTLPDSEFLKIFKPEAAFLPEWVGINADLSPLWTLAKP
UniProt Q9BYC5: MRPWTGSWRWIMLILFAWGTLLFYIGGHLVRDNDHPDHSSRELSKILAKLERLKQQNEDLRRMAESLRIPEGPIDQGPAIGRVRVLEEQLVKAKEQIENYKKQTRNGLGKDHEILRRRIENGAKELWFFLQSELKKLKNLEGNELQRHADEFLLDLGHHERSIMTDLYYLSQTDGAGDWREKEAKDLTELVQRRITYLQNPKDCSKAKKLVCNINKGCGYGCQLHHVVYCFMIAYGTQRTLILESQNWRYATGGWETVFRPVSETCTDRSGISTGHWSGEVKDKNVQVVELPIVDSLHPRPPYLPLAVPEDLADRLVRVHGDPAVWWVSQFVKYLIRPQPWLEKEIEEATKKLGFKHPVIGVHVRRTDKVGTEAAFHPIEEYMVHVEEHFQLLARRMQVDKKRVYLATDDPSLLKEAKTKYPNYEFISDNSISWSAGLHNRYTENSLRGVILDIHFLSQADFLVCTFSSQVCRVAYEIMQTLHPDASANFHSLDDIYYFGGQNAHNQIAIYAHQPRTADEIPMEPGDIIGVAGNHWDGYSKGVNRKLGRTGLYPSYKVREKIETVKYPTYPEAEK
UniProt Q9NZC3: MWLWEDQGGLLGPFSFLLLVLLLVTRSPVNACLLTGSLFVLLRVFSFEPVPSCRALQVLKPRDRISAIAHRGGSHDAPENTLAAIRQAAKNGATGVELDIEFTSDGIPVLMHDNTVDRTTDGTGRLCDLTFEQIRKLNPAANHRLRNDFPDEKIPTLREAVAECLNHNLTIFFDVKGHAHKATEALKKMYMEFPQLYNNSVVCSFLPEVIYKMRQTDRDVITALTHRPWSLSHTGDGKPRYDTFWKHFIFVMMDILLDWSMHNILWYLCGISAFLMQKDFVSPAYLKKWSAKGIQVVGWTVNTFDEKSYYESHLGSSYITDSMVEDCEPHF
UniProt Q9UP38, whole entry, looked up: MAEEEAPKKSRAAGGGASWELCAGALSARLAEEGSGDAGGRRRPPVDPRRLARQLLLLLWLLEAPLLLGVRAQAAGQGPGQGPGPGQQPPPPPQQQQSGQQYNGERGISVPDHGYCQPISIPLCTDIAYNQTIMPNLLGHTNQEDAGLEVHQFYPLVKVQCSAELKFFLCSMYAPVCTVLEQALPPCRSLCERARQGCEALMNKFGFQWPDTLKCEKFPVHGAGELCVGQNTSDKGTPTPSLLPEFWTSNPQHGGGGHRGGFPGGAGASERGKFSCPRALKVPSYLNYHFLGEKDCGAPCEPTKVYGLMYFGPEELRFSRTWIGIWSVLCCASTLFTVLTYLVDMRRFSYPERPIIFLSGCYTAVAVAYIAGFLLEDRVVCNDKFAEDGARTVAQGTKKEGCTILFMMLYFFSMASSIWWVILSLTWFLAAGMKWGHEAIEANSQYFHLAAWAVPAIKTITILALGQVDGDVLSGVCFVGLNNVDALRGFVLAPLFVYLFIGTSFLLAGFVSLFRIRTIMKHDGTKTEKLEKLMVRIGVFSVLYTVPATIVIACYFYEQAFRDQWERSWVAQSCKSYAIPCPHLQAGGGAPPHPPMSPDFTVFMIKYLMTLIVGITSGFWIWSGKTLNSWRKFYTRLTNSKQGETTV
UniProt O15117, whole entry, looked up: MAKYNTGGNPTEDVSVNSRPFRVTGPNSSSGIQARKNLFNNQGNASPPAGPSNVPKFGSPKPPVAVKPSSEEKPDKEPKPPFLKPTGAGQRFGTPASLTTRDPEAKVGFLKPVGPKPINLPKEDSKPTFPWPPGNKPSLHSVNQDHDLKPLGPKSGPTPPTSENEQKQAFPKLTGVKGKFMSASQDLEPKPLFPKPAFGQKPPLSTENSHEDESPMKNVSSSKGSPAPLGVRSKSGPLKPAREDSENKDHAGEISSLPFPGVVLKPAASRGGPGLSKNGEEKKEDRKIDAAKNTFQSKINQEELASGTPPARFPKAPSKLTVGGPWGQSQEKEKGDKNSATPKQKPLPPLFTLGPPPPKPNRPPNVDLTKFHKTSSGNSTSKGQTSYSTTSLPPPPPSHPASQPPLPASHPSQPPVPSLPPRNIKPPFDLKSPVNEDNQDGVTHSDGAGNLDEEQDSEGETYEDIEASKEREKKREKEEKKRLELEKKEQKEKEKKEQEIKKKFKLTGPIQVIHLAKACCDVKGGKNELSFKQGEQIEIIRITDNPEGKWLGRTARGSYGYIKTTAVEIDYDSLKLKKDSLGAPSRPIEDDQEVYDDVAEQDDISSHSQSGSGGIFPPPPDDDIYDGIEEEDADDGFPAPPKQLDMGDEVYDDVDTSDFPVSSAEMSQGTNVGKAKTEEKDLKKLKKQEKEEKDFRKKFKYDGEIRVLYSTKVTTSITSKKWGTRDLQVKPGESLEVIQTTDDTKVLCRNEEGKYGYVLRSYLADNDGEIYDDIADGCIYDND
UniProt P19440: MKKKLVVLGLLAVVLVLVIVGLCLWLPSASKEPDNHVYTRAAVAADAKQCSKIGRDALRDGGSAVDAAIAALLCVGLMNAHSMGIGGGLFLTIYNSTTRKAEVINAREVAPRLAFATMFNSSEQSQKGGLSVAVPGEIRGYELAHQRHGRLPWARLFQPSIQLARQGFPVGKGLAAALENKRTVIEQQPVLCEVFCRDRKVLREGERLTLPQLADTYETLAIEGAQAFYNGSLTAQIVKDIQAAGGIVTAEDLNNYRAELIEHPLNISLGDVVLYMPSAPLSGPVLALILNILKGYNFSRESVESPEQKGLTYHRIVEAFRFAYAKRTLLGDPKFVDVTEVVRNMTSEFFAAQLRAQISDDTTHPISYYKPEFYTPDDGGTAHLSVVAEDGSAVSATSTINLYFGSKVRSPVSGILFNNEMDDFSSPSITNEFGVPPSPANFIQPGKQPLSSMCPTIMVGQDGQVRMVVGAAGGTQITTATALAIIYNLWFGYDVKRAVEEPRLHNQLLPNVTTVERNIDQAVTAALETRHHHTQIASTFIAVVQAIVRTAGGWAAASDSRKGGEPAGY
UniProt Q9UPW0: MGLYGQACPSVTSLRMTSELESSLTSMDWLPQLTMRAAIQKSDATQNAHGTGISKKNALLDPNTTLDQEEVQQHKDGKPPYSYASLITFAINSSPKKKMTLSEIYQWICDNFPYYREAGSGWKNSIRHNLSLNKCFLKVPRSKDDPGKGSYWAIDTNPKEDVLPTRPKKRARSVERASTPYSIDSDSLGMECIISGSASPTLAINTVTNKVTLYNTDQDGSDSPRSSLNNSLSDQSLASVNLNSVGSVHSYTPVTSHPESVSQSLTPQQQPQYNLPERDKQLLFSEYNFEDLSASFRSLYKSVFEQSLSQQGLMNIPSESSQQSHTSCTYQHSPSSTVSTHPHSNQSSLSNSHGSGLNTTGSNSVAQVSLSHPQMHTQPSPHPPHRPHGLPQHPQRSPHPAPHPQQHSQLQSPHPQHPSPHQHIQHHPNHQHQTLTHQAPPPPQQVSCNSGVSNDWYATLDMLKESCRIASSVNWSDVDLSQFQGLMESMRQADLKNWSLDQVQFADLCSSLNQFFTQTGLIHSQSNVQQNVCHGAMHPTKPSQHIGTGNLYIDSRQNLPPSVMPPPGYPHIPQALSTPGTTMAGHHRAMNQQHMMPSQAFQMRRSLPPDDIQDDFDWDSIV
UniProt Q96DB9: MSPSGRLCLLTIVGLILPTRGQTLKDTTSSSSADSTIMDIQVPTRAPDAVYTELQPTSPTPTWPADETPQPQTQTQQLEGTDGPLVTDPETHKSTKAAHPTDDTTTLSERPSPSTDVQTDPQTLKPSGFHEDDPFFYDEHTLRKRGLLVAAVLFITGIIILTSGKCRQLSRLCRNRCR
UniProt Q8IVV7: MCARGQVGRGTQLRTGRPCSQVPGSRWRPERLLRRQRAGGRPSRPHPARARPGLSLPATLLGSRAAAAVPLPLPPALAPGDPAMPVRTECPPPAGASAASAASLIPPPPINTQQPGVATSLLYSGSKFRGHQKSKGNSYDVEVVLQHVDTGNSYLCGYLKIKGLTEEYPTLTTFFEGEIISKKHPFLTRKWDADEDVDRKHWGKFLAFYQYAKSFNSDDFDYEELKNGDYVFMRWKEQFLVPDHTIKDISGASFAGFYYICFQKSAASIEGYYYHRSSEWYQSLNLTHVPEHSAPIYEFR
UniProt Q06547, whole entry, looked up: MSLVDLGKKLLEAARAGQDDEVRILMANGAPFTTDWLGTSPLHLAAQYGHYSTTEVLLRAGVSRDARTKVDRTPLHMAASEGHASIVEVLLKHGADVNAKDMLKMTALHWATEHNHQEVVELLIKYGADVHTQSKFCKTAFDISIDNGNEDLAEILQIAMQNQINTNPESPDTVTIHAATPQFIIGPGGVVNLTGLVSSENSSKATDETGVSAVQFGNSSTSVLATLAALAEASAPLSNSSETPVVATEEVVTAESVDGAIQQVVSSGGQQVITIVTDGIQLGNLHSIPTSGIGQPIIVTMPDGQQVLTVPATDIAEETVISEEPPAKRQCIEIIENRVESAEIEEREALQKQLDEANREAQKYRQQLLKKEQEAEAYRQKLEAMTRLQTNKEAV
UniProt Q8NCL4: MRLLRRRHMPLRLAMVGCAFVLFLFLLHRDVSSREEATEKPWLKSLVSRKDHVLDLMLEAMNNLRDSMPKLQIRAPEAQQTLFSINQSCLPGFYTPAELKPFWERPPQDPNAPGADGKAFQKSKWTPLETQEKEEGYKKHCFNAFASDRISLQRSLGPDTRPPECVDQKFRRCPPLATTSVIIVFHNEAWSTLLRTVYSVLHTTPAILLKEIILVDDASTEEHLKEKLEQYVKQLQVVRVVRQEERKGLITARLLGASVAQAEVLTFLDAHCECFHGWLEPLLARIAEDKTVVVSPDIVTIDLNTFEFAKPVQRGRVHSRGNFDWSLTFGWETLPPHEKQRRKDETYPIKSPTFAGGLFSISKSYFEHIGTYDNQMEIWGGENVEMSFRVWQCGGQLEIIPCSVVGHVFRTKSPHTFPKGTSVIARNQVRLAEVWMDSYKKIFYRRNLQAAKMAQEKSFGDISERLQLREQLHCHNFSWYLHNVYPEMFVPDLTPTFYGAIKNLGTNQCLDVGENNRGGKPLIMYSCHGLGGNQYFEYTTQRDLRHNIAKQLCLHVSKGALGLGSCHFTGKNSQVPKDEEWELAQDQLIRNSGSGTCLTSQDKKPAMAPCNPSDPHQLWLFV

crizotinib = compound: C[C@@H](Oc1cc(-c2cnn(C3CCNCC3)c2)cnc1N)c1c(Cl)ccc(F)c1Cl [crizotinib]
Method in brief: as §1

[2] = compound: C[C@@H]1COCCN1C2=NC(=NC(=C2)C3(CC3)S(=O)(=O)C)C4=C5C=CNC5=CC=C4
Method in brief: as §1

[3] = compound: C[C@H](C1=CC=C(C=C1)C(=O)NC2=C3C=CNC3=NC=C2)N
Method in brief: as §1

duvelisib = compound: C[C@H](Nc1ncnc2nc[nH]c12)c1cc2cccc(Cl)c2c(=O)n1-c1ccccc1 [duvelisib]
Method in brief: as §1

gandotinib = compound: Cc1cc(Nc2cc(CN3CCOCC3)c3nc(C)c(Cc4ccc(Cl)cc4F)n3n2)n[nH]1 [gandotinib]
Method in brief: as §1

tozasertib = compound: Cc1cc(Nc2cc(N3CCN(C)CC3)nc(Sc3ccc(NC(=O)C4CC4)cc3)n2)n[nH]1 [tozasertib]
Method in brief: as §1

[4] = compound: Cc1cc(SCc2sc(-c3ccc(C(F)(F)F)cc3)nc2C)ccc1OCC(=O)O
Method in brief: as §1

doramapimod = compound: Cc1ccc(-n2nc(C(C)(C)C)cc2NC(=O)Nc2ccc(OCCN3CCOCC3)c3ccccc23)cc1 [doramapimod]
Method in brief: as §1

ispinesib = compound: Cc1ccc(C(=O)N(CCCN)[C@@H](c2nc3cc(Cl)ccc3c(=O)n2Cc2ccccc2)C(C)C)cc1 [ispinesib]
Method in brief: as §1

bafetinib = compound: Cc1ccc(NC(=O)c2ccc(CN3CC[C@H](N(C)C)C3)c(C(F)(F)F)c2)cc1Nc1nccc(-c2cncnc2)n1 [bafetinib]
Method in brief: as §1

[5] = compound: Cc1cccc(CC(=O)N2CCc3c2ccc(-c2cn(C)c4ncnc(N)c24)c3F)n1
Method in brief: as §1

nilotinib = compound: Cc1cn(-c2cc(NC(=O)c3ccc(C)c(Nc4nccc(-c5cccnc5)n4)c3)cc(C(F)(F)F)c2)cn1 [nilotinib]
Method in brief: as §1

[6] = compound: Cc1nc(Nc2n[nH]c3c2CN(C(=O)N[C@H](CN(C)C)c2ccccc2)C3(C)C)c2sccc2n1
Method in brief: as §1

dasatinib = compound: Cc1nc(Nc2ncc(C(=O)Nc3c(C)cccc3Cl)s2)cc(N2CCN(CCO)CC2)n1 [dasatinib]
Method in brief: as §1

[7] = compound: Cc1ncc(-c2ccnc(Nc3ccc(S(C)(=O)=O)cc3)n2)n1C(C)C
Method in brief: as §1

[8] = compound: Cn1cc(-c2ccc3c(c2)CCN3C(=O)Cc2cccc(C(F)(F)F)c2)c2c(N)ncnc21
Method in brief: as §1

[9] = compound: Cn1cc(-c2ccc3nnc(C(F)(F)c4ccc5ncccc5c4)n3n2)cn1
Method in brief: as §1

tipifarnib = compound: Cn1cncc1[C@@](N)(c1ccc(Cl)cc1)c1ccc2c(c1)c(-c1cccc(Cl)c1)cc(=O)n2C [tipifarnib]
Method in brief: as §1

mubritinib = compound: FC(F)(F)c1ccc(/C=C/c2nc(COc3ccc(CCCCn4ccnn4)cc3)co2)cc1 [mubritinib]
Method in brief: as §1

Target | log2 fold change [1] | log2 fold change (crizotinib) | log2 fold change [2] | log2 fold change [3] | log2 fold change (duvelisib) | log2 fold change (gandotinib) | log2 fold change (tozasertib) | log2 fold change [4] | log2 fold change (doramapimod) | log2 fold change (ispinesib) | log2 fold change (bafetinib) | log2 fold change [5] | log2 fold change (nilotinib) | log2 fold change [6] | log2 fold change (dasatinib) | log2 fold change [7] | log2 fold change [8] | log2 fold change [9] | log2 fold change (tipifarnib) | log2 fold change (mubritinib)
GATAD2A isoform 3 (UniProt Q86YP4) | inactive: 0 | inactive: -0.015 | inactive: 0.053 | inactive: 0.013 | inactive: -0.031 | inactive: -0.019 | inactive: 0.098 | inactive: 0.147 | inactive: 0.102 | inactive: -0.109 | inactive: 0.005 | inactive: 0.012 | inactive: -0.039 | inactive: -0.13 | inactive: -0.079 | inactive: -0.075 | inactive: 0.005 | inactive: -0.021 | inactive: 0.019 | inactive: -0.033
GAR1 (UniProt Q9NY12) | inactive: 0.003 | inactive: -0.007 | inactive: -0.263 | inactive: 0.27 | inactive: -0.114 | inactive: 0.117 | inactive: 0.018 | inactive: 0.04 | inactive: 0.164 | inactive: -0.018 | inactive: 0.156 | inactive: -0.039 | inactive: -0.025 | inactive: 0.073 | inactive: 0.196 | inactive: 0.016 | inactive: -0.135 | inactive: -0.045 | inactive: 0.094 | inactive: -0.084
GARS1 (UniProt H7C443) | – | – | – | – | – | – | inactive: -0.093 | – | – | – | – | – | – | – | – | – | – | – | – | –
FOPNL (UniProt Q96NB1) | – | – | – | – | – | – | inactive: 0.012 | – | – | – | – | – | – | – | – | – | – | – | – | –
GATB (UniProt O75879) | inactive: 0.223 | inactive: -0.072 | inactive: 0.18 | – | inactive: 0.202 | inactive: -0.109 | inactive: 0.188 | inactive: 0.079 | inactive: 0 | inactive: 0.148 | – | inactive: -0.147 | inactive: -0.122 | inactive: -0.115 | inactive: -0.239 | inactive: 0.025 | – | inactive: 0.296 | inactive: -0.364 | inactive: -0.049
FUT1 (UniProt P19526) | inactive: -0.172 | – | inactive: 0.1 | – | – | – | – | – | – | – | – | – | – | – | – | – | – | – | – | –
FUT8 (UniProt Q9BYC5) | inactive: 0.018 | inactive: -0.235 | inactive: 0.077 | inactive: -0.011 | – | inactive: 0.034 | – | inactive: 0.178 | inactive: -0.017 | inactive: -0.148 | inactive: -0.062 | inactive: -0.042 | inactive: -0.008 | inactive: 0.006 | inactive: 0.031 | inactive: 0.054 | inactive: -0.276 | inactive: 0.022 | – | inactive: -0.037
GDE1 (UniProt Q9NZC3) | inactive: 0.033 | inactive: 0.063 | inactive: 0.077 | inactive: -0.087 | – | – | – | inactive: -0.067 | inactive: 0.074 | inactive: 0.051 | inactive: 0.081 | – | inactive: 0.03 | inactive: 0.054 | inactive: 0.028 | inactive: -0.032 | inactive: 0.106 | inactive: -0.029 | inactive: -0.001 | inactive: 0.01
GAK (UniProt O14976) | inactive: 0.49 | inactive: 0.115 | inactive: -0.081 | inactive: 1.26 | – | inactive: 0.02 | – | inactive: -0.121 | inactive: 0.206 | inactive: -0.157 | – | inactive: -0.072 | inactive: 0.257 | inactive: 0.792 | inactive: 1.31 | inactive: 0.232 | inactive: -0.07 | inactive: -0.031 | inactive: -0.238 | inactive: 0.005
GGA2 (UniProt Q9UJY4) | inactive: 0.038 | inactive: -0.089 | inactive: 0.032 | inactive: 0.036 | – | – | – | inactive: 0.015 | inactive: 0.009 | inactive: -0.177 | inactive: 0.024 | – | inactive: -0.031 | inactive: 0.065 | inactive: 0.075 | inactive: -0.013 | inactive: 0.024 | inactive: 0.034 | inactive: -0.003 | inactive: 0.014
FZD1 (UniProt Q9UP38) | inactive: 0.111 | – | inactive: -0.082 | inactive: -0.088 | – | – | – | – | – | – | inactive: 0.045 | – | inactive: -0.228 | inactive: 0.627 | – | inactive: 0.243 | inactive: -0.012 | – | – | –
FYB1 isoform 3 (UniProt O15117) | inactive: -0.025 | inactive: -0.11 | inactive: 0.046 | – | active: -0.344 | inactive: 0.057 | – | inactive: 0.067 | inactive: 0.021 | inactive: -0.083 | inactive: -0.019 | inactive: -0.071 | inactive: -0.036 | inactive: -0.026 | inactive: -0.021 | inactive: -0.077 | – | inactive: -0.156 | inactive: -0.025 | inactive: 0.085
GGT1 (UniProt P19440) | inactive: 0.026 | inactive: 0.092 | inactive: -0.029 | – | inactive: -0.138 | inactive: 0.025 | inactive: -0.015 | inactive: 0.184 | inactive: -0.003 | – | inactive: -0.022 | inactive: -0.063 | – | – | inactive: 0.032 | – | – | – | inactive: 0.025 | inactive: 0.001
GATA2 (UniProt P23769) | inactive: 0.115 | – | – | inactive: -0.16 | inactive: -0.12 | inactive: 0.088 | – | inactive: -0.161 | – | inactive: -0.068 | inactive: -0.011 | inactive: 0.089 | inactive: 0.057 | inactive: -0.075 | inactive: 0.087 | inactive: 0.057 | inactive: -0.138 | inactive: -0.014 | inactive: -0.026 | inactive: -0.065
GAA (UniProt P10253) | inactive: -0.081 | inactive: 0.083 | inactive: -0.068 | – | – | inactive: 0.101 | inactive: -0.071 | – | inactive: -0.188 | – | – | inactive: -0.072 | – | – | – | – | – | – | – | inactive: -0.021
FOXJ3 (UniProt Q9UPW0) | – | inactive: -0.038 | inactive: 0.023 | inactive: -0.035 | inactive: 0.099 | – | inactive: -0.003 | inactive: -0.039 | inactive: -0.037 | inactive: 0.055 | inactive: -0.147 | – | inactive: 0.103 | inactive: -0.237 | inactive: -0.028 | inactive: -0.2 | inactive: 0.025 | inactive: -0.041 | inactive: 0.093 | inactive: -0.108
GALNT7 (UniProt H0YAH3) | – | inactive: -0.055 | inactive: -0.259 | inactive: 0.271 | – | – | – | – | inactive: 0.104 | – | inactive: -0.088 | – | – | – | – | – | inactive: 0.134 | – | – | –
FRY (UniProt Q5TBA9) | inactive: 0.045 | – | inactive: 0.003 | – | – | inactive: -0.275 | inactive: 0.068 | – | – | – | inactive: 0.112 | inactive: -0.247 | – | – | – | – | – | – | – | inactive: 0.145
FXYD5 (UniProt Q96DB9) | inactive: -0.04 | inactive: 0.106 | – | inactive: -0.067 | inactive: 0.169 | inactive: 0.183 | – | inactive: 0.011 | inactive: 0.26 | inactive: 0.036 | – | inactive: -0.375 | – | – | inactive: -0.057 | – | inactive: 0.025 | inactive: 0.118 | inactive: 0 | –
GID4 (UniProt Q8IVV7) | inactive: 0 | – | inactive: 0.054 | inactive: -0.006 | – | inactive: 0.034 | – | inactive: 0.032 | – | inactive: 0.044 | inactive: -0.059 | inactive: -0.058 | inactive: -0.051 | inactive: 0.003 | inactive: -0.086 | inactive: 0.038 | inactive: -0.042 | inactive: -0.032 | inactive: 0.116 | inactive: -0.029
GABPB1 (UniProt Q06547) | inactive: 0.141 | inactive: -0.052 | – | – | – | – | inactive: 0.111 | – | inactive: 0.051 | inactive: -0.246 | inactive: -0.058 | – | – | – | – | – | – | inactive: 0.031 | inactive: -0.016 | –
GALNT6 (UniProt Q8NCL4) | inactive: 0.045 | inactive: -0.171 | inactive: -0.011 | – | inactive: 0.019 | – | inactive: 0.013 | inactive: -0.105 | inactive: 0 | inactive: -0.03 | inactive: -0.043 | – | inactive: 0.009 | inactive: -0.019 | inactive: -0.112 | inactive: 0.073 | – | inactive: -0.075 | inactive: 0.095 | inactive: 0.154

Quoted from the listing.
log2 fold change [9], GATA2 (UniProt P23769) is entered as inactive: -0.014
log2 fold change (dasatinib), FYB1 isoform 3 (UniProt O15117) is entered as inactive: -0.021

— the supplement of paper PMC10849652
